Experimental data published in patent US20260226079A1, “A STRATEGY FOR THE SELECTIVE REMOVAL OF MRI CONTRAST AGENTS” (Portland State University, priority 2023, published 2026).

Tests used:
[1] = SPAAC selective interception of GdDO3A-azido monoamide chelate on DBCO-PS beads, Gd by ICP-MS
Procedure: The GdDO3A-azido monoamide chelate and DBCO-PS beads shown in FIG. 15 were utilized in a similar experiment described previously. Due to the expensive DBCO starting material, the beads were generated on small scales. Accordingly, the scales of the experiments were reduced to 50 mg bead starting material and 0.5 equivalents of GBCA consistent with the loading capacity determined for each batch of DBCO-PS. All other conditions remained constant (1 mL reaction volume, 37° C., 1,000 rpm mixing at pH 7). Samples were prepared for ICP-MS analysis using the same method as previously described with fewer dilutions. The experiments were run with variable reaction times, matrix, and percentage DMSO.

[2] = SPAAC selective interception of GdDO3A-DBCO monoamide chelate on azide terminated PS beads, Gd in supernatant by ICP-MS
Procedure: To address potential stability issues associated with the GdTTHA-Alkyne and azide-PS beads system, tri-acetate mono-amide chelate systems were tested, that may experience fewer experimental difficulties. The initial SPAAC reactions were carried out with GdDO3A-DBCO monoamide chelate and azide terminated bead (FIG. 13). The Gd^3+ concentration was temporally monitored in the supernatant to gain a sense of reaction kinetics and optimal reaction times. To avoid mechanical stirring, a temperature-controlled thermomixer was used which mixed through agitation and was capable of batch testing. And the reaction was analyzed by ICP-MS.
All experiments were performed on a 100 mg bead scale with 0.5 equivalents of GdDO3A-DBCO monoamide chelate in water (1 mL) agitated at 1,000 rpm and 50° C. […] were selected: 3 minutes, 3 hours, 6 hours, 9 hours and 24 hours. The reactions were stopped at their respective time point, the sample was centrifuged and the supernatant was decanted and filtered. The beads were washed and centrifuged three times before the filtered supernatant was freeze dried and digested in HNO3 for ICP-MS analysis.
The effect of pH at relevant pH ranges of urine (~4.5-8) on the efficiency of Gd removal was investigated. Additionally, the role of an organic cosolvent was investigated to determine whether the aqueous medium is a limiting factor in efficiency. A pH range of 5-9 was tested with 1:1 v:v DMSO:H2O at 50° C. stirring at 1,000 rpm for 24 hours. The reaction mixtures were centrifuged, and the supernatant was decanted and filtered. The beads were washed and centrifuged in triplicate and the supernatants were freeze dried and digested for ICP-MS analysis, data summarized below in Table 1.
A multivariate approach was designed to establish the interaction between various levels of cosolvent volume, reaction time and temperature. The volume of DMSO was lowered with the hope of identifying other contributing factors that would lead to an enhanced outcome using a minimal amount of organic cosolvent. Additionally, the temperature ranged from 25° C. to 50° C. and the reaction time was assessed over 0.5 hours and 24 hours, and at pH 7. The scale of the beads and GdDO3A-DBCO monoamide chelate remained the same as previous trials at a 100 mg scale with 0.5 equivalents of GBCA while mixing at 1,000 rpm. The beads were centrifuged, washed, and digested in nitric acid for ICP-MS analysis using the methods described previously, results summarized below in Table 2.
Following the suboptimal results from previous trials with a smaller volume of DMSO cosolvent, the range of added cosolvent was increased to 50% v:v. Additionally, a simulated urine matrix, Surine™, was added to test if there were any significant effects from any urine constituents on the reaction efficiency. The experiments were run with variable reaction times, matrix and percentage DMSO at pH 7 and 37° C.

SMILES | maximum Gd removal ([1]; Table 4 study: pH 7, 37° C., variable time, matrix, % DMSO) [%] | maximum removal ([1]; in Surine with DMSO cosolvent) [%] | maximum removal ([1]; in Surine without cosolvent) [%] | efficiency of removal ([2]; Table 2 study: 0-100 μL DMSO, 25-50° C., 0.5-24 hr, pH 7) [%] | maximum Gd removal ([2]; Table 3 study: pH 7, 37° C., variable time, matrix, % DMSO) [%] | percentage of Gd removed from the reaction mixture ([2]; after three minutes, water, 50° C., 1,000 rpm, stock solution pH 2) | removal of Gd ([2]; in Surine with organic cosolvent) [%] | removal of Gd ([2]; in Surine without organic cosolvent) [%] | removal of Gd ([2]; pHs 5, 7 and 9 with 50% DMSO v:v cosolvent in water) [%]
[Gd+3].[N-]=[N+]=NCCCNC(=O)CN1CCN(CC(=O)[O-])CCN(CC(=O)[O-])CCN(CC(=O)[O-])CC1 [GdDO3A-azido monoamide] | 73 | 65 | 73 |  |  |  |  |  | 
O=C([O-])CN1CCN(CC(=O)[O-])CCN(CC(=O)NCCC(=O)N2Cc3ccccc3C#Cc3ccccc32)CCN(CC(=O)[O-])CC1.[Gd+3] [GdDO3A-DBCO monoamide] |  |  |  | ~30 | 82 | over 60% | 80 | 72 | ~98
